According to PubChem BioAssay AID588590 (National Center for Advancing Translational Sciences (NCATS), 2011):
The whole screen tested about 390,000 compounds, of which about 4,000 (1%) were called active. The inconclusive results got no clear call from the source; some entries with a clear call stand among them for comparison. The call rests on the fitted dose curve; in most records, active means well fitted inhibition curve with a large enough effect; inconclusive means small, poorly fitted or top-dose-only effect, or another doubt; inactive means no such curve, though single readings can be large or run the other way. Potencies beside an inconclusive call are fits to weak or partial responses and may not hold up.

By UniProt entry, the sequences of proteins in these tests, tags left out. Where a name states a change or a piece, a line headed by the entry shows the natural chain unless it says otherwise.
UniProt Q9UNA4: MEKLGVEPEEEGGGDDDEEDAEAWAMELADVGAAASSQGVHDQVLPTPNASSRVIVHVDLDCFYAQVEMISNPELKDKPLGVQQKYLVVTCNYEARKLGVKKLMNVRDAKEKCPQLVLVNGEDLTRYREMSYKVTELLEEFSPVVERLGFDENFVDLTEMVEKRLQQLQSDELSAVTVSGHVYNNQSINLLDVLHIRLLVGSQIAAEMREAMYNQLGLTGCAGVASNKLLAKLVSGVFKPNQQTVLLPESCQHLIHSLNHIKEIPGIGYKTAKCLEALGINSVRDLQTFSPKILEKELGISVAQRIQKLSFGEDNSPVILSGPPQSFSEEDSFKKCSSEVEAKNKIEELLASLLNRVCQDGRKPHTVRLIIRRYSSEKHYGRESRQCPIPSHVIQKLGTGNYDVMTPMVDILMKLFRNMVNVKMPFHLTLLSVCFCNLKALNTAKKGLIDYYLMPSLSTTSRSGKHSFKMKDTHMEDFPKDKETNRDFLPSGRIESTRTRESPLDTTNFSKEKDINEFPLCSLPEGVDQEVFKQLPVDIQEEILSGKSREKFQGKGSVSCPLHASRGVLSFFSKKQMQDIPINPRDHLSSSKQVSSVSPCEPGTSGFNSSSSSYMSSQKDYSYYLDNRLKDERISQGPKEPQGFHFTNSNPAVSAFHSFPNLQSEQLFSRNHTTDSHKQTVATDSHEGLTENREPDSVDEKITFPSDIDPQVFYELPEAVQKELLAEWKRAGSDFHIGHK

What follows are molecules tested against DNA polymerase iota (Homo sapiens) (UniProt Q9UNA4) (assay: qHTS for Inhibitors of Polymerase Iota). Settings: Pol iota fluorescent replication assay, 10 min; series mostly up to 115 µM.
Method in brief: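 Pol iota at 10 nM preincubated 15 min with compounds at room temperature; reaction started with fluorescent substrate, 50 nM final. Fluorescence read kinetically at 0 and 10 min; buffer-only wells as negative control.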
Potency means the concentration at half of the fitted maximal effect.

Potency, active:
CN(CC(=O)Nc1ccc(F)cc1)C(=O)CCc1nc2sc3c(c2c(=O)[nH]1)CCCC3 35.5 µM
Cc1nnc(SCC2=C(C(=O)O)N3C(=O)C(NC(=O)c4cccc(F)c4F)C3SC2)s1 (stereo not given) 15.8 µM

Potency, inactive:
COc1ccccc1/C=C/C(=O)NCC(=O)N/N=C(/C)c1ccc(Cl)cc1
COc1ccc(C2NC(=O)N(C)C3=C2C(=O)N(c2ccc(Br)cc2)C3)cc1 (stereo not given)
O=C(NC1CCCCC1)C1CC(=O)N(c2cccc([N+](=O)[O-])c2)C1 (stereo not given)
COc1cc(O)c2c(=O)c3c(O)c(O)ccc3oc2c1OC
COc1ccc2c(C)nc(Nc3nc(C)c(C)c(=O)[nH]3)nc2c1
COc1cc2ccccc2cc1C(=O)Nc1cccc(-c2nc3cc(C)c(C)cc3o2)c1
O=C(N/N=C/c1cccc([N+](=O)[O-])c1)c1cc(-c2ccccc2)nc2ccccc12
O=C(O)CCCC(=O)Nc1cc([N+](=O)[O-])ccc1O
O=C(NCC(c1cccnc1)N1CCc2ccccc21)c1cccc(Br)c1 (stereo not given)
COc1cc(OC)cc(C(=O)N[C@H](C(=O)OCC(=O)Nc2cccnc2Cl)C(C)C)c1
CCCC(=O)Nc1nnc(S(=O)(=O)N(C)Cc2ccc(Cl)cc2)s1
O=C(O)c1cc(O)c2c(c1)[C@H]([C@H]1c3cc(C(=O)O)cc(O)c3C(=O)c3c(O[C@@H]4O[C@H](CO)[C@@H](O)[C@H](O)[C@H]4O)cccc31)c1cccc(OC3O[C@H](CO)[C@@H](O)[C@H](O)[C@H]3O)c1C2=O (stereo not given in full)

Potency, inconclusive:
COC(=O)c1cc(S(=O)(=O)N2CCN(c3ccc([N+](=O)[O-])cc3)CC2)c[nH]1 79.4 µM [inhibitor, partial curve, poor fit]
NC(N)=NC(N)=Nc1ccc(O)cc1 89.1 µM [inhibitor, partial curve, poor fit]
CSc1nc(C)cc(SCCO)n1 89.1 µM [inhibitor, partial curve, poor fit]
O=C(NCC1CCCO1)c1nn2c(C(F)(F)F)cc(-c3ccc(Br)o3)nc2c1Br (stereo not given) 15.8 µM [inhibitor, full curve]
COc1ccc(CC(=O)c2ccc(OC)c(OC)c2)cc1 22.4 µM [inhibitor, full curve, poor fit]
Cc1ccc(S(=O)(=O)N2CCCCC2)cc1NC(=O)CSc1ccc2c(c1)OCCO2 126 µM [inhibitor, partial curve, poor fit]
Cc1ccccc1OCC(=O)OC(C)CN1CCN(C)CC1 (stereo not given) 39.8 µM [inhibitor, single point]
COc1ccc(CNC(=O)C(=O)NCC2CCCO2)cc1 (stereo not given) 3.16 µM [inhibitor, single point]
CCOC(=O)C1CCN(C(C)=C2C(=O)c3ccccc3C2=O)CC1 28.2 µM [inhibitor, single point]
O=C(NC1CCC(O)CC1)c1ccc(NS(=O)(=O)c2cccc([N+](=O)[O-])c2)cc1 (stereo not given) 79.4 µM [inhibitor, partial curve, poor fit]
CN(C(=O)c1cccc(NC(=O)Cc2ccc(NC(=O)C3CCCN(C(=O)C4CCCC4)C3)cc2)c1)C1CCC1 (stereo not given) 79.4 µM [inhibitor, single point]
COc1cc(/C=C2\SC(=S)N(N3CCOCC3)C2=O)ccc1O 4.47 µM [inhibitor, full curve, poor fit]
COc1ccc2[nH]c(C)c(CCN(Cc3cccs3)C(=S)Nc3ccccc3)c2c1 8.91 µM [inhibitor, partial curve, poor fit]
CC(=O)c1c(C)[nH]c(C(=O)COC(=O)CCCOc2ccccc2)c1C 89.1 µM [inhibitor, partial curve, poor fit]
COc1cccc(N2CC(C(=O)Nc3nnc(SCC(=O)NC4CCCC4)s3)CC2=O)c1 (stereo not given) 39.8 µM [inhibitor, partial curve, poor fit]
CC(=O)N(C1=C(N2CCOCC2)C(=O)c2ccccc2C1=O)c1ccc(C(=O)O)cc1 14.1 µM [inhibitor, partial curve, poor fit]
Cc1ccccc1N1CCN(C(=O)CN2C(=O)c3ccccc3C2=O)CC1 89.1 µM [inhibitor, partial curve, poor fit]
O=C(COc1ccccc1Cl)Nc1nc(-c2ccncc2)cs1 22.4 µM [inhibitor, partial curve, poor fit]
O=C(Nc1cccc(S(=O)(=O)Nc2ccccc2F)c1)c1ccc2ccccc2n1 12.6 µM [inhibitor, partial curve, poor fit]
O=C(CSc1nc(-c2ccccc2)nc2ccccc12)Nc1cccc(C(=O)O)c1 25.1 µM [inhibitor, partial curve, poor fit]
CCN(CC)CCNC(=O)c1ccc(NC(=O)/C=C/c2ccc3ccccc3n2)cc1 56.2 µM [inhibitor, partial curve, poor fit]
CCc1ccc(NC(=O)c2cnn(-c3ccccc3)c2-n2cccc2)cc1 89.1 µM [inhibitor, single point]
COc1ccccc1Nc1nc(-c2ccccc2F)nc2ccccc12 100 µM [inhibitor, partial curve, poor fit]
CCN1CCCC(OC(=O)c2cc(-c3ccc(C)cc3)nc3ccccc23)C1 (stereo not given) 15.8 µM [inhibitor, full curve, poor fit]
Cc1cccc(-c2nn3c(=O)cc(CN4CCN(C(=O)/C=C/c5ccccc5)CC4)nc3s2)c1 44.7 µM [inhibitor, single point]
CC1=NN(Cc2ccccc2)C(=O)/C1=C/c1ccc(N(C)C)cc1 20 µM [inhibitor, single point]

Quoted at random: 2 entries already listed, in no set order.
Potency, inconclusive:
COc1ccc2[nH]c(C)c(CCN(Cc3cccs3)C(=S)Nc3ccccc3)c2c1 8.91 µM [inhibitor, partial curve, poor fit]
CCOC(=O)C1CCN(C(C)=C2C(=O)c3ccccc3C2=O)CC1 28.2 µM [inhibitor, single point]
